In the supplement of paper PMC12595434, “Development of retinoid nuclear receptor pathway antagonists through targeting aldehyde dehydrogenase 1A3” (iScience, 2025):
The other results are listed elsewhere or left out. The data scatter; read single values as rough.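 Tm was set to 64 °C where no melting was found, and many curves are irregular.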

Sequences of proteins named here, by UniProt entry; tags and fusion partners are left off.
UniProt Q13733, whole entry: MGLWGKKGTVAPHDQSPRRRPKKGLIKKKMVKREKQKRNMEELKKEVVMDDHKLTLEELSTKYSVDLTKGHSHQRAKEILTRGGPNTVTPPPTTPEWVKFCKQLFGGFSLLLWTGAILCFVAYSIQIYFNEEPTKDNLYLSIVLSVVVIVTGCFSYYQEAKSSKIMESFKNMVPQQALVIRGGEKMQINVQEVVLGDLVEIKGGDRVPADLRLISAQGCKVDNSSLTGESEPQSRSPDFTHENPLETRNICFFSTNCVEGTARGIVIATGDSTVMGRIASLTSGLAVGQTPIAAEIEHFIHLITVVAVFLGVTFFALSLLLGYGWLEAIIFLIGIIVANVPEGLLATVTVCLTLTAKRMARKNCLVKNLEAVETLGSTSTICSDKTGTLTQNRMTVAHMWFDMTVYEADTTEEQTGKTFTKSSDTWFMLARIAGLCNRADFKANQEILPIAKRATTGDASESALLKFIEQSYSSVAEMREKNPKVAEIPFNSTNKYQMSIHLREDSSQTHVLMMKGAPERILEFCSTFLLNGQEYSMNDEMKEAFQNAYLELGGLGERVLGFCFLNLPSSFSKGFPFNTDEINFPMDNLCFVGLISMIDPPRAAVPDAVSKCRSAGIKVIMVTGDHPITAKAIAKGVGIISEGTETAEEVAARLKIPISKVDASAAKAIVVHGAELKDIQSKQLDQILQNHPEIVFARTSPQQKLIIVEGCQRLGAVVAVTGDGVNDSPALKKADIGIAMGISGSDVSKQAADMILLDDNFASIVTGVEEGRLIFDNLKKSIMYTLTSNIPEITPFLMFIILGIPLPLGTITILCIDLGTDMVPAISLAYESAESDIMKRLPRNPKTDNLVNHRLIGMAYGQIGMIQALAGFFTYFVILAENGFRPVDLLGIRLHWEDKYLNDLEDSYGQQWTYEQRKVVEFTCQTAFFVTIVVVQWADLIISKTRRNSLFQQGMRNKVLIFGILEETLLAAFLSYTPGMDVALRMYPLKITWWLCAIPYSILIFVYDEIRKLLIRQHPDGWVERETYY

Target: UniProt Q13733
Assay: melting temperature shift (DMSO Tm minus MBE1-treated Tm) in cellular thermal proteome profiling; higher = less thermal stabilization by MBE1 (negative = stabilized by MBE1)
Conditions: A375

**Q.** Which results are given for CCc1cnccc1C(=O)Nc1cc2c(cc1F)NC(=O)CC2?
**A.** melting temperature shift (MBE1 concentration: 100 nM): -1.08 °C; melting temperature shift (MBE1 concentration: 1 uM): -0.726 °C
